In paper PMC12679367:
Results are given in words; binding and its absence hold for the method and conditions named. Binding seen in cells or lysates may run through a third protein. A result given as binding can be weak or reduced; the word gives no strength.

Sequences of proteins named here, by UniProt entry; tags and fusion partners are left off. A change or cut given only in a name is not applied to a line headed by its entry. Residues count along the entry.
UniProt Q16236: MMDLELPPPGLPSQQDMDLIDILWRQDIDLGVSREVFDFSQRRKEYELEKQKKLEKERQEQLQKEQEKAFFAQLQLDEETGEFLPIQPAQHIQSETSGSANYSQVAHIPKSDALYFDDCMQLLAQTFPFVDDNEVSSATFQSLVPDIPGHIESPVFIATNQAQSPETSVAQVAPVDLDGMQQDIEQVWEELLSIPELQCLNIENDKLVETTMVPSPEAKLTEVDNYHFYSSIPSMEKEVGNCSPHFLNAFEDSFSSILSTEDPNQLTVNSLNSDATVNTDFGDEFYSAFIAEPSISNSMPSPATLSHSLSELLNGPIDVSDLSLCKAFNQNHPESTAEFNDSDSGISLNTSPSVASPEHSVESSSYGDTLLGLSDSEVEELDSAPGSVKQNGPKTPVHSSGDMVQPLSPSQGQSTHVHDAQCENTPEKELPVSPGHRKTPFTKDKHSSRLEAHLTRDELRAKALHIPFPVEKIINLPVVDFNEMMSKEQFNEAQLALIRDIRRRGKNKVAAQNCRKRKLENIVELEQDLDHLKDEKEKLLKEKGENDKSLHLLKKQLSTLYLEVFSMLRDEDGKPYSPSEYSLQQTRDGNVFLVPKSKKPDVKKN
UniProt O00217, residues 35-210: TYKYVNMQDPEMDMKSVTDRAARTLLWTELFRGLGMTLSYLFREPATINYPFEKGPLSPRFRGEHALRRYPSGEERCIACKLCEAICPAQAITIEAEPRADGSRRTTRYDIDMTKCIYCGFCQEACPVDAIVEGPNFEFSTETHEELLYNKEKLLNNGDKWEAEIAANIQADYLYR

Experiments:
[1] = target: mutant NRF2 from the Mut-NRF2 plasmid (mutated in residues 230-270) (UniProt Q16236); experiment: co-IP; HEK293T cells transfected with WT-NRF2 or Mut-NRF2 plasmid (Figure 6E); captured by anti-NRF2 antibody with Protein A/G PLUS-Agarose, blot with anti-NDUFS8; NDUFS8/NRF2 ratio quantified, n = 6
[2] = target: T1, nuclear factor erythroid 2-related factor 2 (NRF2), endogenous in rat basal forebrain (rat (endogenous in basal forebrain)) (UniProt O54968); experiment: co-IP; 'in vivo' (Figure S6H); basal forebrain of sham and 2VO rats; captured by anti-NRF2 antibody with Protein A/G PLUS-Agarose, blot with anti-NDUFS8
T1 sequence: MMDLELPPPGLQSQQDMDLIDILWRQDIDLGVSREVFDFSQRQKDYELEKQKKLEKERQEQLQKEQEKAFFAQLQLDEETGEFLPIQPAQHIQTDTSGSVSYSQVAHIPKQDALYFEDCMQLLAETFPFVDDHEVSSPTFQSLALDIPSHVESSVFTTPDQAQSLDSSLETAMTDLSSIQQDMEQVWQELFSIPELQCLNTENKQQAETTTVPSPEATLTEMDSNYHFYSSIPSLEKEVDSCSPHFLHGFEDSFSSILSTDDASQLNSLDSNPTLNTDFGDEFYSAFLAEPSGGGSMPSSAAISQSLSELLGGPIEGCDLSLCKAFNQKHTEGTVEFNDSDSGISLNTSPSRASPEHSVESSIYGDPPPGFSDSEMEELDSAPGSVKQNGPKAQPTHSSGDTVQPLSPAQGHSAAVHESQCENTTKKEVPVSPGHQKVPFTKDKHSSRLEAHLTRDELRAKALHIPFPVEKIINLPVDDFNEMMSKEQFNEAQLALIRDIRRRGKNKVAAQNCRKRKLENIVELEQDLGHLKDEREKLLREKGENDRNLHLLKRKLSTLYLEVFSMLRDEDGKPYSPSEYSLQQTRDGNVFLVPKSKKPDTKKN

| Substance | binding [1] | binding [2] |
| --- | --- | --- |
| NADH dehydrogenase (ubiquinone) Fe-S protein 8 (NDUFS8) in HEK293T cells (from UniProt O00217 35-210) | binds |  |
| NADH dehydrogenase (ubiquinone) Fe-S protein 8 (NDUFS8), endogenous in rat basal forebrain |  | binds |
